The values that follow come from paper PMC11707020.

By UniProt entry, the sequences of proteins in these tests, tags left out. Where a name states a change or a piece, a line headed by the entry shows the natural chain unless it says otherwise.
UniProt P40763: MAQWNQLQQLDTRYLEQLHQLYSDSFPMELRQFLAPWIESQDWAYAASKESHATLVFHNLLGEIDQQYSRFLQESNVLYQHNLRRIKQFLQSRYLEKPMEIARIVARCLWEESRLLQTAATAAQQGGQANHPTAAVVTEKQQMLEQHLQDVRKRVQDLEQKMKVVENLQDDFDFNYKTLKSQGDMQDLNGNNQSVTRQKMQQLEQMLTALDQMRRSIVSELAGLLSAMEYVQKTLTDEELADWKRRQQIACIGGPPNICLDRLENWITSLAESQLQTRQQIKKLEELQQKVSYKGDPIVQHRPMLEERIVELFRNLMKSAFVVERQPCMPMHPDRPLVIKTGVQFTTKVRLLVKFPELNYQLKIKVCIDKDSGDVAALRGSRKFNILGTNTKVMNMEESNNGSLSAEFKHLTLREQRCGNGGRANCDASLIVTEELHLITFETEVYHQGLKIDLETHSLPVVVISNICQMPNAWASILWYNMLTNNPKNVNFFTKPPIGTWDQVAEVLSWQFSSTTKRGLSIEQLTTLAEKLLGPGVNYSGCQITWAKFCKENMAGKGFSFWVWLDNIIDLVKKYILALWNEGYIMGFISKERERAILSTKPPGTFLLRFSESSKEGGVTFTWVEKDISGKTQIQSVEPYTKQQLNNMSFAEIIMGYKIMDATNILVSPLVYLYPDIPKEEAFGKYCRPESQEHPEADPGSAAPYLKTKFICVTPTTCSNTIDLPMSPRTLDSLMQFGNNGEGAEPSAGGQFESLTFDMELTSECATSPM
UniProt Q9UHP3: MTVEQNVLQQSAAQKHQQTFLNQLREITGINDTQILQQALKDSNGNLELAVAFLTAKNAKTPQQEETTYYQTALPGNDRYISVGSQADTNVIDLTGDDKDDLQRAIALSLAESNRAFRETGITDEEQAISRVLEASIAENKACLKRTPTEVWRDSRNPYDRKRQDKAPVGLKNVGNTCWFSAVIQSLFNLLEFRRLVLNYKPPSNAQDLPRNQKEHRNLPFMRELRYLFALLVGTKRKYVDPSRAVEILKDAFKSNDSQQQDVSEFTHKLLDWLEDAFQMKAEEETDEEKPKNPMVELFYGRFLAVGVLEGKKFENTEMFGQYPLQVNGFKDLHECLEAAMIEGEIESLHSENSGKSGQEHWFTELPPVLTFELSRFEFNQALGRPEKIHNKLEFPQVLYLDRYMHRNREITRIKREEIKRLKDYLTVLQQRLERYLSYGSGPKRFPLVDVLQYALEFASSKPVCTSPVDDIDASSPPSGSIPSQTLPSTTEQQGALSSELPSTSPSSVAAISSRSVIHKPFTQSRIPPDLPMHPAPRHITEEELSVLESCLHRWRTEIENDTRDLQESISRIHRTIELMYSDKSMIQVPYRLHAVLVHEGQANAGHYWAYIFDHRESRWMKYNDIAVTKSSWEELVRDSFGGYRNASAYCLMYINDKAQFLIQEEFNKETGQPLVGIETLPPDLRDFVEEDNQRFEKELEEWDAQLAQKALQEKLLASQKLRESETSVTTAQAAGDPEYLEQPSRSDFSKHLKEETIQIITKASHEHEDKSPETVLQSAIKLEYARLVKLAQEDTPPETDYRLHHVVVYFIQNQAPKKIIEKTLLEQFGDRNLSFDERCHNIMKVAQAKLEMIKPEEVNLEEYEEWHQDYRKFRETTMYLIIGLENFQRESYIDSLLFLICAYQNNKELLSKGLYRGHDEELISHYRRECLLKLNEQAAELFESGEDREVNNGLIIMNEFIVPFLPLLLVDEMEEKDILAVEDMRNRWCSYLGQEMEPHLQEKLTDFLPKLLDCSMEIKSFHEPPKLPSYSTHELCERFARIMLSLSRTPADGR

Results are given in words; binding and its absence hold for the method and conditions named. Binding seen in cells or lysates may run through a third protein. Some entries that bind do so weakly or less than the wild type.

For experiment [1], the target named is HA-STAT3 (signal transducer and activator of transcription 3), wild type (UniProt P40763). Description: co-IP; 293T cells transfected with Flag-USP25 and HA-STAT3 (wild type or point mutants); IP lysis buffer, protein A/G agarose beads and the indicated antibodies (IP-Flag, IP-HA), western blot; one panel with or without lambda protein phosphatase. Background: A western blot detects proteins with antibodies after separation by electrophoresis.

Experiment [2] addresses Flag-USP25 (ubiquitin-specific protease 25) (UniProt Q9UHP3). Described as above.
Experiment [3] has as its target endogenous USP25 (human (endogenous in NCM460)) (UniProt Q9UHP3). Description: co-IP; endogenous proteins, NCM460 cells lysed in IP lysis buffer; protein A/G agarose beads, IP-USP25 and IP-STAT3, western blot.
Experiment [4] concerns the target endogenous STAT3 (human (endogenous in NCM460 and 293T)) (UniProt P40763). The description is as above.

For the substance “Flag-USP25 (ubiquitin-specific protease 25) (from UniProt Q9UHP3 1-1055) (enzyme)”, in experiment [1], the binding result is “binds”. In the case of “HA-STAT3 (signal transducer and activator of transcription 3), wild type (from UniProt P40763 1-770)”, the binding result in experiment [2] is recorded as “binds”. On to “HA-STAT3-S521A (from UniProt P40763 1-770)”, for which the binding entry in experiment [2] is “binds”. For “HA-STAT3-S727A (from UniProt P40763 1-770)”, the binding result in experiment [2] is “binds”. As to “HA-STAT3-T516A (from UniProt P40763 1-770)”, the binding result in experiment [2] is on record as “binds”. “endogenous STAT3 (from UniProt P40763 1-770)”: the binding result in experiment [3] was “binds”. In the case of “endogenous USP25 (from UniProt Q9UHP3 1-1055) (enzyme)”, the binding result in experiment [4] is recorded as “binds”.
